# In the supplement of paper PMC3334620:
# Over roughly 33,000 sequences, “E-score (-0.5 to 0.5)” has its median near -0.016; the highest 2% begin near 0.3. The list shows a part of the results.
# Molecular target: T1, Yer184c (UniProt P39961)
# T1 sequence: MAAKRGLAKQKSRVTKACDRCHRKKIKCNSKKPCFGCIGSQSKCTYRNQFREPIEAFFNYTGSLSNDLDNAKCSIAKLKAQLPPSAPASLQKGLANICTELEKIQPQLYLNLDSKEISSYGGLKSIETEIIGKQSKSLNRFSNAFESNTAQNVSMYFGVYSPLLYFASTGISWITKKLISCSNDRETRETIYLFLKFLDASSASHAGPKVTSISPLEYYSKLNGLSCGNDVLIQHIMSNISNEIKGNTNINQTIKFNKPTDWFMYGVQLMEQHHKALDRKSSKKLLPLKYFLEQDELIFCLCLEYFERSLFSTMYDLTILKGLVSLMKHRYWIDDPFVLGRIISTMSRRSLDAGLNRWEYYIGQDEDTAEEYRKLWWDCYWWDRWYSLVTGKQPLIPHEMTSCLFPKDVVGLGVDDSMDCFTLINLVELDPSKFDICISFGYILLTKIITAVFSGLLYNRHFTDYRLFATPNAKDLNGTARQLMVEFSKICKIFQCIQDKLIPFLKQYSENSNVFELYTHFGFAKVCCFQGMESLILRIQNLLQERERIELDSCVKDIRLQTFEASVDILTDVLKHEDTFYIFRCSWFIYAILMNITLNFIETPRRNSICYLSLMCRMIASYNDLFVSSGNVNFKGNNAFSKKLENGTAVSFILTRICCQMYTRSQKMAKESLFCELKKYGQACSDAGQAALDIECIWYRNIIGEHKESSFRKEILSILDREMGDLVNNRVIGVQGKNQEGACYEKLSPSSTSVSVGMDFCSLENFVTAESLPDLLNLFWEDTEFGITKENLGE
# Assay: PBM E-score (8-mer binding enrichment) (E-score (-0.5 to 0.5)); higher = stronger / more preferred TF binding
# Settings: protein concentration: 100 nM; construct: GST-full length
# Summary of the method: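 Yeast transcription factors, full-length or as DNA-binding domains, were expressed with a GST tag using PURExpress in vitro transcription/translation. At about 100-200 nM they were applied to universal all-10-mer Agilent arrays, double-stranded by primer extension on fresh or once-stripped slides. Fluorescent anti-GST detected bound protein, and masliner normalised the scans. E-scores for ungapped eight-base words, pooled with reverse complements, came from the Universal PBM Analysis Suite.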
row,Sequence,PBM E-score
1,CATACCGA,0.0789
2,AGACCTGC,-0.23
3,AACCGAAA,0.345
4,AAGACTTA,0.0327
5,AGTCTGCC,-0.0262
6,CGACTGGA,-0.0689
7,GGTCCCAA,-0.218
8,CTCGACTC,-0.158
9,ATGGTAAG,-0.11
10,GAAATTCC,0.0108
11,ACCTACAA,0.0682
12,ACAGGTAC,-0.19
13,TATCAGGA,0.182
14,CAAACATC,0.202
15,AACGCGCC,0.0479
16,AAATAGTT,0.153
17,GCGGACGC,-0.106
18,CCCATTGC,-0.119
19,GGATGGAC,-0.0483
20,CATTCTGA,0.104
21,ACAGTTCA,0.153
22,ATCACTGC,0.106
23,CGCCTCCA,-0.0793
24,TCACTGGA,-0.0932
25,GAACGATC,0.0882

# 7 neighbouring records from above, for reference:
row,Sequence,PBM E-score
12,ACAGGTAC,-0.19
13,TATCAGGA,0.182
14,CAAACATC,0.202
15,AACGCGCC,0.0479
16,AAATAGTT,0.153
17,GCGGACGC,-0.106
18,CCCATTGC,-0.119

# (next part)

row,Sequence,PBM E-score
1,CCTCCCGA,0.046
2,CTACCCGC,-0.011
3,GTCTGTAA,0.0917
4,CACCCTAA,-0.135
5,GCGCTCAA,-0.0579
6,GGCCCAAC,-0.0823
7,GCTCTGAC,-0.11
8,ACCACATG,-0.0788
9,CCGGAACA,0.435
10,TAAATGAA,0.00284
11,ACTTAGGC,-0.0534
12,ACCCCGTC,-0.184
13,CTGCCAAC,-0.046
14,AGTTAAAC,-0.0413
15,AACCATGC,0.0582
16,AAAGTCAA,0.0734
17,ACGGCCAG,0.0144
18,AAATCAAT,0.137
19,AGGGTTAC,-0.328
20,CGGCCCCG,0.0672
21,CTATCTAA,-0.0743
22,GCAGGCAA,0.066
23,AGTCCAGG,-0.206
24,CGATGCAC,-0.135
25,AACAAGAT,0.151

row,Sequence,PBM E-score
1,CAACCGCG,0.306
2,GATCACAC,-0.0414
3,CGGTTCCA,0.123
4,GCTGTCAC,-0.154
5,AGGGTTTC,-0.118
6,CACTCTAG,-0.0442
7,CCCGGAGG,0.0124
8,AGAACGGG,-0.0299
9,CTGAAAAA,0.0158
10,CCTTATTC,-0.0768
11,ACACCGCC,-0.0396
12,ACAACGTA,-0.00276
13,ACCTGCAC,-0.157
14,CATATCGC,-0.0129
15,GGGGGAAC,-0.34
16,GAAATTGC,0.031
17,GGTTACAC,-0.101
18,AAACCACG,-0.01
19,CCCGAGAC,0.0787
20,CGCTAAGC,0.0776
21,AGGACTGA,-0.0956
22,AGTCATTA,-0.17
23,ACAGAGAC,-0.105
24,ACACTCGC,0.0547
25,CGGTGGTA,-0.0143

row,Sequence,PBM E-score
1,GTAGGTCA,-0.294
2,GAGTTGGA,-0.0447
3,GACATCCA,-0.177
4,GCCAATCA,-0.24
5,GAGGCAGC,-0.201
6,GGATCTCA,-0.0215
7,CGTGATAC,-0.184
8,AATGCGGC,0.0994
9,GTATGGGA,-0.214
10,ATTTGACG,0.0483
11,CCTCCCTC,-0.0488
12,GCAACTCC,0.0666
13,GAACCCAA,-0.0482
14,ATCAGATG,-0.0466
15,AACGGGAT,0.102
16,CTACGCCC,-0.188
17,CTATAAAC,0.159
18,TAGTTCGA,0.00019
19,AGTAGGGC,-0.0259
20,CCACCAGG,-0.199
21,ACCCTTTG,-0.174
22,CGTTTTAC,0.111
23,CAAAGTCG,-0.116
24,AGTGGTAG,-0.245
25,ATTGTGCC,-0.051

row,Sequence,PBM E-score
1,GCGCGAAC,0.146
2,ATGGTAGG,-0.184
3,CTAGATTA,0.113
4,CAGTACGA,0.139
5,TCCAACGA,-0.117
6,ACCGAAAC,0.264
7,CTTAGGGC,-0.0132
8,AGGTCACC,-0.0933
9,CAATGTAG,-0.0569
10,GACGTAGA,-0.335
11,AGCCAGAG,0.00372
12,ACGCCGGG,0.21
13,AGATCATG,-0.112
14,ACCCAGCT,-0.234
15,CCTGTCTC,-0.124
16,AAGTGCAC,-0.0762
17,AATAATAC,0.232
18,GCGACTTA,-0.115
19,ACACGCTA,-0.0608
20,AGTCATGA,0.0426
21,CGATAAAG,-0.00214
22,CTCCGTAC,-0.045
23,GTGAGTAA,0.0124
24,ATTAAATC,0.231
25,ATTGATTA,0.221

row,Sequence,PBM E-score
1,GTATAATA,0.251
2,GTCCTAAA,0.109
3,ACCGGGGG,-0.0716
4,ACGTCGCC,-0.194
5,TACAGGCA,-0.0164
6,GTGTACAC,-0.0204
7,CGTGTTAC,-0.0082
8,AGGGCATA,-0.0471
9,CCGCGCTA,0.18
10,ATCCTCTG,-0.181
11,AATTGCAT,0.0867
12,CTAGATAA,0.0124
13,CGAAGTAA,0.13
14,GCGATACA,0.0282
15,ATGGCCCC,-0.162
16,ATATCAAT,0.174
17,ACATCTGA,-0.135
18,ACGTGTAT,-0.15
19,AACACTAG,-0.0603
20,ATACGGCA,0.235
21,ATACTAGA,0.223
22,CGCGGGTA,0.0447
23,AACGACTG,-0.189
24,TTCCAAAA,0.107
25,AGCTGCAT,-0.16

row,Sequence,PBM E-score
1,CACCTACG,-0.194
2,AAATTTCC,0.261
3,AGTAGGAT,-0.0173
4,ATGAGTTA,-0.0323
5,CAGTGGCA,-0.104
6,CAGAATTA,0.126
7,AGGGATGA,-0.133
8,ACAAATGT,0.101
9,CAGCAAGG,-0.203
10,GAGGAAGA,0.00205
11,GTTCCATA,-0.0744
12,ATTCACTA,0.133
13,TATATCGA,0.161
14,GAGCGGAC,-0.168
15,CTCGCGTA,-0.07
16,GATGTGGC,-0.206
17,GTGTACCA,-0.183
18,CCAGGACC,-0.141
19,CGAAAGCA,0.194
20,GACTTCTC,-0.0341
21,CATTGTCA,0.137
22,ATAGGGTC,-0.253
